Results deposited as PubChem BioAssay AID602196 (INSERM, 2012)

Aim: 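Genes whose knock-down alters cisplatin killing of lung cancer cells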
Cell system: human A549 lung cancer cells
Reagents: siRNA pair against human genes
Duration: 48 h transfection before cisplatin; time from cisplatin to read-out not stated
Conditions: cisplatin at a dose killing half of control-siRNA cells; exact dose and duration not given
Detection: 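Cisplatin cell death as a shift from the 50% death seen with control siRNA; siRNAs toxic or growth-blocking alone scored 0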
Scale: two-siRNA summed score (-2 to +2): higher = both siRNAs protect from cisplatin killing; -2 means both sensitise
Call rule: 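siRNAs harmful alone (LDH or WST-1) get 0; others get +1 for less and -1 for more cisplatin killing; genes are active when the two siRNAs give the same sign, summing to ±2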
Calls: active = both siRNAs shift cisplatin killing the same way; inactive = no consistent shift, or siRNA harmful alone
In all, the deposit lists about 23,000 reagents; shown is an unselected part. 455 of all reagents (2%) were called active. 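Active includes both protection and sensitisation; some change values fall well beyond the stated -50 to +50 range.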 A number with no mark means an inactive call. Not all columns of the deposit are shown. Reagent sequences are not shown. Not stated in the record: the amount of reagent.

The first 2 entries as a preview:
GPR17: two-siRNA summed score (-2 to +2) = 0
GCG: two-siRNA summed score (-2 to +2) = 0

The listing, repeating the preview:
GPR17: two-siRNA summed score (-2 to +2) = 0
GCG: two-siRNA summed score (-2 to +2) = 0
RNF151: two-siRNA summed score (-2 to +2) = -1
SEC31A: two-siRNA summed score (-2 to +2) = 0
DBF4: two-siRNA summed score (-2 to +2) = 0
TSEN2: two-siRNA summed score (-2 to +2) = 0
ITGB1BP2: two-siRNA summed score (-2 to +2) = 0
CPNE8: two-siRNA summed score (-2 to +2) = 0
ADAM33: two-siRNA summed score (-2 to +2) = 0
TTLL9: two-siRNA summed score (-2 to +2) = 0
CHCHD3: two-siRNA summed score (-2 to +2) = 1
YWHAG: two-siRNA summed score (-2 to +2) = -1
MTHFS: two-siRNA summed score (-2 to +2) = 0
RGL2: two-siRNA summed score (-2 to +2) = 0
FANK1: two-siRNA summed score (-2 to +2) = 0
WNT2: two-siRNA summed score (-2 to +2) = 0
SEPTIN7P11: two-siRNA summed score (-2 to +2) = 0
LOC390898: two-siRNA summed score (-2 to +2) = 1
MAP3K6: two-siRNA summed score (-2 to +2) = 1
MUC6: two-siRNA summed score (-2 to +2) = -1
ZNF224: two-siRNA summed score (-2 to +2) = 1
